Assay results published in article PMC4476799, “Englerin A Agonizes the TRPC4/C5 Cation Channels to Inhibit Tumor Cell Line Proliferation” (PLoS ONE, 2015).
Further values from the same series stand in other lists.

Test system: cancer cell lines from the cancer cell line encyclopedia (CCLE)
Assay: Cell line profiling (CLiP) proliferation experiment
Assay type: cell-based
Parameters: ACTIVITY_AREA: scale not given here; AMAX: unit not given here
Description: Compound profiling experiment and data analysis was performed as previously described. Data was imported and plotted using the Tibco Spotfire DXP application. Lines were categorized as sensitive, intermediate and refractory as follows: Amax<-40 & Inflection Point <2 ~ Sensitive, Amax>-20 & Inflection Point >10 ~ Refractory, all else were called Intermediate. Cancer Cell line HG-U133 Plus 2 data was processed and normalized as described. […] Five sets of refractory cell lines were generated from the pool of refractory cell lines trying to match the lineage composition of the set of sensitive cell lines. The limma package was used as previously described to perform the statistical comparison.

[1] = OCI-AML3, haematopoietic_and_lymphoid_tissue, acute_myeloid_leukaemia
[2] = OCI-LY3 (haematopoietic_and_lymphoid_tissue)
[3] = OCI-LY3, haematopoietic_and_lymphoid_tissue, diffuse_large_B_cell_lymphoma
[4] = OCI-LY-19, haematopoietic_and_lymphoid_tissue, diffuse_large_B_cell_lymphoma
[5] = OCI-M1, haematopoietic_and_lymphoid_tissue, acute_myeloid_leukaemia
[6] = OE19, oesophagus, adenocarcinoma
[7] = RL (haematopoietic_and_lymphoid_tissue)
[8] = RS4;11 (haematopoietic_and_lymphoid_tissue)

With `CC(C)[C@@]12C[C@@H](O)[C@@](C)(O1)[C@@H]1CC[C@@H](C)[C@H]1[C@@H]2OC(=O)/C=C/c1ccccc1` [Englerin B] the RESPONSE (OCI-AML2 cells) was “INTERMEDIATE”, the ACTIVITY_AREA [1] was 39.66 and the AMAX [1] was -74.66. The RESPONSE [1] was “INTERMEDIATE”, the ACTIVITY_AREA (OCI-AML3 cells) was 39.66 and the AMAX (OCI-AML3 cells) was -74.66. For the same molecule, the RESPONSE (OCI-AML3 cells) was “INTERMEDIATE”, the ACTIVITY_AREA [2] was 85.76 and the AMAX [2] was -88.94. The RESPONSE [2] was “INTERMEDIATE”, the ACTIVITY_AREA [3] was 85.76 and the AMAX [3] was -88.94. The RESPONSE [3] was “INTERMEDIATE”, the ACTIVITY_AREA [4] was 40.8 and the AMAX [4] was -90.15. For the same molecule, the RESPONSE [4] was “INTERMEDIATE”, the ACTIVITY_AREA (OCI-LY-19 cells) was 40.8 and the AMAX (OCI-LY-19 cells) was -90.15. The RESPONSE (OCI-LY-19 cells) was “INTERMEDIATE”, the ACTIVITY_AREA [5] was 42.99 and the AMAX [5] was -77.04. For the same molecule, the RESPONSE [5] was “INTERMEDIATE”, the ACTIVITY_AREA (OCI-M1 cells) was 42.99 and the AMAX (OCI-M1 cells) was -77.04. The RESPONSE (OCI-M1 cells) was “INTERMEDIATE”, the ACTIVITY_AREA (OE19 (oesophagus)) was 36.09 and the AMAX (OE19 (oesophagus)) was -66.7. For the same molecule, the RESPONSE (OE19 (oesophagus)) was “INTERMEDIATE”, the ACTIVITY_AREA [6] was 36.09 and the AMAX [6] was -66.7. The RESPONSE [6] was “INTERMEDIATE”, the ACTIVITY_AREA (OMM2.3 (eye)) was 18.16 and the AMAX (OMM2.3 (eye)) was -44.55. For the same molecule, the RESPONSE (OMM2.3 (eye)) was “INTERMEDIATE”, the ACTIVITY_AREA (OMM2.5 cells) was 0.63 and the AMAX (OMM2.5 cells) was 4.64. For the same molecule, the RESPONSE (OMM2.5 cells) was “REFRACTORY”, the ACTIVITY_AREA (ONCO-DG-1 cells) was 143.78 and the AMAX (ONCO-DG-1 cells) was -75.46. The RESPONSE (ONCO-DG-1 cells) was “INTERMEDIATE”, the ACTIVITY_AREA (OS-RC-2 cells) was 15.73 and the AMAX (OS-RC-2 cells) was -35.15. The RESPONSE (OS-RC-2 cells) was “INTERMEDIATE”, the ACTIVITY_AREA (OUMS-23 cells) was 39.54 and the AMAX (OUMS-23 cells) was -76.24. For the same molecule, the RESPONSE (OUMS-23 cells) was “INTERMEDIATE”, the ACTIVITY_AREA (OV7 cells) was 174.64 and the AMAX (OV7 cells) was -34.89. The RESPONSE (OV7 cells) was “INTERMEDIATE”, the ACTIVITY_AREA (OV56 cells) was 34.53 and the AMAX (OV56 cells) was -42.75. For the same molecule, the RESPONSE (OV56 cells) was “INTERMEDIATE”, the ACTIVITY_AREA (OV-90 cells) was 32.55 and the AMAX (OV-90 cells) was -42.84. The RESPONSE (OV-90 cells) was “INTERMEDIATE”, the ACTIVITY_AREA (OVCAR-4 cells) was 59.14 and the AMAX (OVCAR-4 cells) was -50.24. For the same molecule, the RESPONSE (OVCAR-4 cells) was “INTERMEDIATE”, the ACTIVITY_AREA (OVCAR-8 cells) was 57.78 and the AMAX (OVCAR-8 cells) was -69.26. For the same molecule, the RESPONSE (OVCAR-8 cells) was “INTERMEDIATE”, the ACTIVITY_AREA (OVISE cells) was 51.17 and the AMAX (OVISE cells) was -68.44. The RESPONSE (OVISE cells) was “INTERMEDIATE”, the ACTIVITY_AREA (OVSAHO cells) was 17.26 and the AMAX (OVSAHO cells) was -60.32. The RESPONSE (OVSAHO cells) was “INTERMEDIATE”, the ACTIVITY_AREA (P3HR-1 cells) was 71.41 and the AMAX (P3HR-1 cells) was -54.24. The RESPONSE (P3HR-1 cells) was “INTERMEDIATE”, the ACTIVITY_AREA (P12-ICHIKAWA cells) was 32.54 and the AMAX (P12-ICHIKAWA cells) was -67.41. The RESPONSE (P12-ICHIKAWA cells) was “INTERMEDIATE”, the ACTIVITY_AREA (P31/FUJ cells) was 32.81 and the AMAX (P31/FUJ cells) was -79.81. For the same molecule, the RESPONSE (P31/FUJ cells) was “INTERMEDIATE”, the ACTIVITY_AREA (PANC-1 cells) was 38.24 and the AMAX (PANC-1 cells) was -57.06. The RESPONSE (PANC-1 cells) was “INTERMEDIATE”, the ACTIVITY_AREA (PC-3 cells) was 27.62 and the AMAX (PC-3 cells) was -56.65. The RESPONSE (PC-3 cells) was “INTERMEDIATE”, the ACTIVITY_AREA (PC-14 cells) was 53.2 and the AMAX (PC-14 cells) was -60.86. The RESPONSE (PC-14 cells) was “INTERMEDIATE”, the ACTIVITY_AREA (PE/CA-PJ41 (clone D2) cells) was 24.88 and the AMAX (PE/CA-PJ41 (clone D2) cells) was -57.93. For the same molecule, the RESPONSE (PE/CA-PJ41 (clone D2) cells) was “INTERMEDIATE”, the ACTIVITY_AREA (PEER cells) was 70.62 and the AMAX (PEER cells) was -84.18. For the same molecule, the RESPONSE (PEER cells) was “INTERMEDIATE”, the ACTIVITY_AREA (PF-382 cells) was 21.49 and the AMAX (PF-382 cells) was -65.49. The RESPONSE (PF-382 cells) was “INTERMEDIATE”, the ACTIVITY_AREA (PL-21 cells) was 24.72 and the AMAX (PL-21 cells) was -72.2. The RESPONSE (PL-21 cells) was “INTERMEDIATE”, the ACTIVITY_AREA (PLC/PRF/5 (liver)) was 81.8 and the AMAX (PLC/PRF/5 (liver)) was -62.62. For the same molecule, the RESPONSE (PLC/PRF/5 (liver)) was “INTERMEDIATE”, the ACTIVITY_AREA (PSN1 cells) was 48.4 and the AMAX (PSN1 cells) was -50.26. The RESPONSE (PSN1 cells) was “INTERMEDIATE”, the ACTIVITY_AREA (Panc 02.03 cells) was 33.74 and the AMAX (Panc 02.03 cells) was -6.12. For the same molecule, the RESPONSE (Panc 02.03 cells) was “REFRACTORY”, the ACTIVITY_AREA (Panc 03.27 cells) was 32.48 and the AMAX (Panc 03.27 cells) was -68.65. For the same molecule, the RESPONSE (Panc 03.27 cells) was “INTERMEDIATE”, the ACTIVITY_AREA (Panc 04.03 cells) was 25.22 and the AMAX (Panc 04.03 cells) was -42.01. The RESPONSE (Panc 04.03 cells) was “INTERMEDIATE”, the ACTIVITY_AREA (Panc 10.05 cells) was 44.86 and the AMAX (Panc 10.05 cells) was -68.86. The RESPONSE (Panc 10.05 cells) was “INTERMEDIATE”, the ACTIVITY_AREA (RCC10RGB cells) was 23.96 and the AMAX (RCC10RGB cells) was -33.3. For the same molecule, the RESPONSE (RCC10RGB cells) was “INTERMEDIATE”, the ACTIVITY_AREA (RCH-ACV cells) was 21.26 and the AMAX (RCH-ACV cells) was -65. The RESPONSE (RCH-ACV cells) was “INTERMEDIATE”, the ACTIVITY_AREA (RD cells) was 44.05 and the AMAX (RD cells) was -26.78. For the same molecule, the RESPONSE (RD cells) was “INTERMEDIATE”, the ACTIVITY_AREA (REC-1 cells) was 20.74 and the AMAX (REC-1 cells) was -85.12. For the same molecule, the RESPONSE (REC-1 cells) was “INTERMEDIATE”, the ACTIVITY_AREA (RERF-LC-AI cells) was 24.39 and the AMAX (RERF-LC-AI cells) was -47.09. For the same molecule, the RESPONSE (RERF-LC-AI cells) was “INTERMEDIATE”, the ACTIVITY_AREA (RH-18 cells) was 79.38 and the AMAX (RH-18 cells) was -16.44. For the same molecule, the RESPONSE (RH-18 cells) was “REFRACTORY”, the ACTIVITY_AREA (RH-41 (soft_tissue)) was 42.17 and the AMAX (RH-41 (soft_tissue)) was -95.73. The RESPONSE (RH-41 (soft_tissue)) was “INTERMEDIATE”, the ACTIVITY_AREA (RI-1 cells) was 98.96 and the AMAX (RI-1 cells) was -92.55. The RESPONSE (RI-1 cells) was “INTERMEDIATE”, the ACTIVITY_AREA (RKN (soft_tissue)) was 25.89 and the AMAX (RKN (soft_tissue)) was -49.43. For the same molecule, the RESPONSE (RKN (soft_tissue)) was “INTERMEDIATE”, the ACTIVITY_AREA (RKO (large_intestine)) was 25.58 and the AMAX (RKO (large_intestine)) was -79.57. The RESPONSE (RKO (large_intestine)) was “INTERMEDIATE”, the ACTIVITY_AREA [7] was 38.44 and the AMAX [7] was -90.86. For the same molecule, the RESPONSE [7] was “INTERMEDIATE”, the ACTIVITY_AREA (RMUG-S (ovary)) was 7.3 and the AMAX (RMUG-S (ovary)) was 2.82. The RESPONSE (RMUG-S (ovary)) was “REFRACTORY”, the ACTIVITY_AREA (RPMI 8226 cells) was 43 and the AMAX (RPMI 8226 cells) was -80.8. For the same molecule, the RESPONSE (RPMI 8226 cells) was “INTERMEDIATE”, the ACTIVITY_AREA (RPMI-7951 (skin)) was 38.85 and the AMAX (RPMI-7951 (skin)) was -60.36. The RESPONSE (RPMI-7951 (skin)) was “INTERMEDIATE”, the ACTIVITY_AREA (RPMI-8402 cells) was 70.19 and the AMAX (RPMI-8402 cells) was -61.1. For the same molecule, the RESPONSE (RPMI-8402 cells) was “INTERMEDIATE”, the ACTIVITY_AREA [8] was 34.25 and the AMAX [8] was -73.99. For the same molecule, the RESPONSE [8] was “INTERMEDIATE”, the ACTIVITY_AREA (RT-112 cells) was 66.59 and the AMAX (RT-112 cells) was -78.07. For the same molecule, the RESPONSE (RT-112 cells) was “INTERMEDIATE”, the ACTIVITY_AREA (RVH-421 cells) was 25.69 and the AMAX (RVH-421 cells) was -41.39. The RESPONSE (RVH-421 cells) was “INTERMEDIATE”, the ACTIVITY_AREA (Raji cells) was 46.45 and the AMAX (Raji cells) was -92.06. For the same molecule, the RESPONSE (Raji cells) was “INTERMEDIATE”.
